# Laboratory results: PubChem BioAssay AID266 (DTP/NCI, 2004)
# The list shows only some results of the screen, not a fair sample: it gathers tests that were run many times, whatever their T/C, doses with no T/C, and many T/C values between a quarter and a half above the control. Other doses and runs of a compound stand elsewhere. T/C gives the treated animals as a percentage of the vehicle group. Schedules are NCI's codes, taken here to give the interval after Q, in days (D) or hours (H), and the number of doses after X. Some T/C values are followed by the survivors on the day toxicity was checked, most often the fifth; where none is given, no animal had died by that day. Some doses have a count of surviving animals in place of a T/C: the source holds a T/C of zero for them, seemingly a mark for toxic or unscored doses. Survivors were counted at the toxicity check, usually on the fifth day, unless a day is given; later deaths do not show.
# Test system: Nude mice, LX-1 lung xenograft intrarenal, tumor weight T/C
# Experiment: NCI In Vivo Anticancer Drug Screen. Data for tumor model Human Lung LX-1 Xenograft (intrarenal inoculation) in NU/NU BALB/C (nude) mice
# Conditions: T/C endpoint: mean tumor weight change, higher T/C = larger tumour; for T/C: evaluated on day 11
# Method: The antitumor activity of compounds was measured in mice bearing transplantable tumors. Survival or tumor size were measured and the results are expressed as the measurement made in the treated group (T) divided by the measurement made in the vehicle treated control group (C). The tumor model used in this assay is Human Lung LX-1 Xenograft (intrarenal inoculation) in NU/NU BALB/C (nude) mice
smiles,measurement,setting,value
c1cc2n(n1)CCN2,survivor count,"dose: 200.0 mg/kg/injection, schedule: Q01DX010 (ip), vehicle: saline",1 of 3 on day 11
same,survivor count,"dose: 400.0 mg/kg/injection, schedule: Q01DX010 (ip), vehicle: saline",0 of 3 on day 11
same,survivor count,"dose: 400.0 mg/kg/injection, schedule: Q01DX010 (sc), vehicle: saline",0 of 3 on day 11
same,survivor count,"dose: 1333.3 mg/kg/injection, schedule: Q04DX003 (sc), vehicle: saline",0 of 3 on day 11
COC1=C(OC)C(=O)C(SC/C=C(\C)CCCC(C)CCCC(C)CCCC(C)C)=CC1=O (centres undefined),survivor count,"dose: 2400.0 mg/kg/injection, schedule: Q04DX003 (ip), vehicle: saline with Tween-80",0 of 6 on day 11
CNC(=O)ON(C(C)=O)C(=O)NC,survivor count,"dose: 200.0 mg/kg/injection, schedule: Q01DX010 (sc), vehicle: saline",0 of 3 on day 11
Nc1ccn([C@@H](C=O)O[C@@H](C=O)CO)c(=O)n1,T/C,"dose: 100.0 mg/kg/injection, schedule: Q04DX003 (sc), vehicle: saline",126 % of control
same,survivor count,"dose: 400.0 mg/kg/injection, schedule: Q04DX003 (sc), vehicle: saline",3 of 6 on day 11
same,survivor count,"dose: 800.0 mg/kg/injection, schedule: Q04DX003 (sc), vehicle: saline",0 of 6 on day 11
C1CC[N-]CC1.[Cl][Pt+2][Cl].[NH-]C1CC1,survivor count,"dose: 200.0 mg/kg/injection, schedule: Q04DX003 (sc), vehicle: water",0 of 4 on day 11
N[C@H](C(=O)O)[C@@H]1CC(Cl)=NO1,T/C,"dose: 1.0 mg/kg/injection, schedule: Q01DX010 (sc), vehicle: saline",128 % of control [2 of 2 alive on day 11]
same,survivor count,"dose: 8.0 mg/kg/injection, schedule: Q01DX010 (sc), vehicle: saline",1 of 2 on day 11
same,survivor count,"dose: 16.0 mg/kg/injection, schedule: Q01DX010 (sc), vehicle: saline",1 of 2 on day 11
same,survivor count,"dose: 64.0 mg/kg/injection, schedule: Q02DX005 (sc), vehicle: saline",1 of 2 on day 11
BrCCC1(CCBr)CCCCC1,survivor count,"dose: 2400.0 mg/kg/injection, schedule: Q04DX003 (sc), vehicle: water",3 of 6 on day 11
NCCCNCCSP(=O)(O)O,survivor count,"dose: 1600.0 mg/kg/injection, schedule: Q04DX003 (sc), vehicle: saline",0 of 6 on day 11
N/C=N/O,T/C,"dose: 100.0 mg/kg/injection, schedule: Q01DX010 (sc), vehicle: saline",133 % of control
same,survivor count,"dose: 800.0 mg/kg/injection, schedule: Q01DX010 (sc), vehicle: saline",0 of 3 on day 11
COc1c(C=O)c2c(c(OC)c1OC)-c1ccc(OC)c(=O)cc1[C@@H](NC(C)=O)CC2,survivor count,"dose: 150.0 mg/kg/injection, schedule: Q04DX003 (sc), vehicle: Klucel (hydroxypropylcellulose) (HPC)",1 of 6 on day 11
C=C(C)C(=O)O[C@H]1CC2=C[C@@H](C[C@@]3(C)O[C@@H]3[C@H]3OC(=O)C(=C)[C@@H]31)OC2=O,survivor count,"dose: 600.0 mg/kg/injection, schedule: Q04DX003 (sc), vehicle: Klucel (hydroxypropylcellulose) (HPC)",0 of 6 on day 11
N#CN=[N+]([O-])c1ccc(C(=O)O)cc1,survivor count,"dose: 90.0 mg/kg/injection, schedule: Q04DX003 (sc), vehicle: Klucel (hydroxypropylcellulose) (HPC)",0 of 6 on day 11
Nc1nncs1,survivor count,"dose: 100.0 mg/kg/injection, schedule: Q01DX010 (sc), vehicle: Klucel (hydroxypropylcellulose) (HPC)",0 of 3 on day 11
same,survivor count,"dose: 200.0 mg/kg/injection, schedule: Q01DX010 (sc), vehicle: Klucel (hydroxypropylcellulose) (HPC)",0 of 3 on day 11
same,survivor count,"dose: 400.0 mg/kg/injection, schedule: Q01DX010 (sc), vehicle: Klucel (hydroxypropylcellulose) (HPC)",0 of 3 on day 11
same,survivor count,"dose: 800.0 mg/kg/injection, schedule: Q01DX010 (sc), vehicle: Klucel (hydroxypropylcellulose) (HPC)",0 of 3 on day 11
C[C@]12CCC(=O)C(O)=C1CC[C@@H]1[C@@H]2CC[C@]2(C)C(=O)CC[C@@H]12,T/C,"dose: 1200.0 mg/kg/injection, schedule: Q04DX003 (ip), vehicle: Klucel (hydroxypropylcellulose) (HPC)",134 % of control
COc1ccc(S(=O)(=O)N/N=C/C(=O)O)cc1,survivor count,"dose: 400.0 mg/kg/injection, schedule: Q01DX010 (sc), vehicle: saline with Tween-80",0 of 3 on day 11
O=C(Nc1cc(Cl)ccc1C(=O)O)c1cccc(C[n+]2ccccc2)c1,survivor count,"dose: 600.0 mg/kg/injection, schedule: Q04DX003 (ip), vehicle: saline with Tween-80",2 of 6 on day 11
same,survivor count,"dose: 1200.0 mg/kg/injection, schedule: Q04DX003 (ip), vehicle: saline with Tween-80",0 of 6 on day 11
